Reference: PubChem BioAssay AID1053208 (Peter MacCallum Cancer Centre, 2014)

Test: 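Genes whose silencing cuts survival of bone tumour cells only with doxorubicin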 (primary screen)
System: mouse osteosarcoma cells, early-passage culture from an engineered mouse model of fibroblastic bone tumour
Reagents: siRNA pool against mouse genes, 40 nM
Time to read-out: about 120 h (48 h before drug, then 72 h with drug)
Challenge: doxorubicin 100 nM for 72 h, roughly 30-40% inhibitory dose
Detection: 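Luminescent ATP signal taken as viability with or without 100 nM doxorubicin for 72 h; mean of two wells set against non-targeting siRNA and turned into robust z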
Direction: viability z-score with doxorubicin and doxorubicin viability vs non-targeting: higher = more viable cells under doxorubicin; viability z-score without drug: higher = more viable cells with knock-down alone; z-score of drug to no-drug ratio: higher = less drug sensitisation by knock-down
Rule for the call: 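Called active if knock-down leaves viability unchanged without drug (z within -2 to 2) but lowers it with doxorubicin (z at or under -2)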
Here is a random part of about 17,000 reagents. Over the whole deposit, 788 (4.7%) were called active. 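Calls rest on z-score classes alone; an extra cut-off of viability at most 70% of control was not applied to them.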 Reagents against one gene are numbered here. No sequences are given here.

target	reagent	combined z-score class	viability z-score with doxorubicin	viability z-score without drug	z-score of drug to no-drug ratio	doxorubicin viability vs non-targeting	outcome
Pxk (PX domain containing serine/threonine kinase)	1	no change with or without drug	-1.12	-1.01	-0.45	0.84	inactive
Akap11 (A kinase anchor protein 11)	1	no change with or without drug	0.34	-1.01	1.24	0.97	inactive
Orai1 (ORAI calcium release-activated calcium modulator 1)	1	no change with or without drug	1.12	-1.35	2.47	1.04	inactive
Tmem115 (transmembrane protein 115)	1	no change with or without drug	0.67	0.84	0.22	1	inactive
9430097D07Rik (RIKEN cDNA 9430097D07 gene)	1	no change with or without drug	0.9	0.51	0.67	1.02	inactive
Dnajc12 (DnaJ heat shock protein family (Hsp40) member C12)	1	no change with or without drug	-0.67	0.84	-1.12	0.88	inactive
Col4a4 (collagen, type IV, alpha 4)	1	no change with or without drug	-0.22	1.85	-1.24	0.92	inactive
Col4a4 (collagen, type IV, alpha 4)	2	no change with or without drug	0.22	0.51	0	0.96	inactive
Tbck (TBC1 domain containing kinase)	1	no change with or without drug	-0.22	0.51	-0.45	0.92	inactive
Tbck (TBC1 domain containing kinase)	2	no change with or without drug	-0.45	-1.01	0.34	0.9	inactive
Zfp810 (zinc finger protein 810)	1	no change with or without drug	0	0.17	0	0.94	inactive
Nr2f6 (nuclear receptor subfamily 2, group F, member 6)	1	no change with or without drug	0.67	1.69	-0.34	1	inactive
Slc10a6	1	no change with or without drug	0.9	0.84	0.45	1.02	inactive
Mphosph6 (M phase phosphoprotein 6)	1	no change with or without drug	1.69	0.17	1.8	1.09	inactive
Mcmdc2 (minichromosome maintenance domain containing 2)	1	no change with or without drug	1.35	1.85	0.22	1.06	inactive
SCN1A	1	no change with or without drug	-0.45	0.17	-0.45	0.9	inactive
Bace1 (beta-site APP cleaving enzyme 1)	1	no change with or without drug	-0.22	1.18	-0.9	0.92	inactive
Irf6 (interferon regulatory factor 6)	1	no change with or without drug	0.34	1.01	-0.22	0.97	inactive
9530091C08Rik (RIKEN cDNA 9530091C08 gene)	1	no change with or without drug	0	-1.18	1.01	0.94	inactive
9330175E14Rik (RIKEN cDNA 9330175E14 gene)	1	no change with or without drug	0.11	0	0.22	0.95	inactive
9330175E14Rik (RIKEN cDNA 9330175E14 gene)	2	no change with or without drug	-0.34	-0.51	0.11	0.91	inactive
Zng1 (Zn regulated GTPase metalloprotein activator 1)	1	no change with or without drug	1.01	0	1.12	1.03	inactive
Krt23 (keratin 23)	1	no change with or without drug	-1.35	-1.01	-0.67	0.82	inactive
Tspan13 (tetraspanin 13)	1	high cell count without drug only	0	2.53	-1.46	0.94	inactive
Serbp1 (serpine1 mRNA binding protein 1)	1	no change with or without drug	-0.67	0.34	-0.79	0.88	inactive
Tarbp2 (TARBP2, RISC loading complex RNA binding subunit)	1	no change with or without drug	0.34	0.51	0.11	0.97	inactive
Celf3 (CUGBP, Elav-like family member 3)	1	no change with or without drug	-1.12	1.18	-1.8	0.84	inactive
Nt5c1b (5'-nucleotidase, cytosolic IB)	1	high cell count with doxorubicin only	2.81	1.18	2.14	1.19	inactive
Best1 (bestrophin 1)	1	no change with or without drug	1.12	1.35	0.34	1.04	inactive
Ppp2r1a (protein phosphatase 2, regulatory subunit A, alpha)	1	no change with or without drug	0.9	-0.34	1.35	1.02	inactive
Slc29a4	1	high cell count without drug only	0.22	5.06	-2.36	0.96	inactive
E030024N20Rik (RIKEN cDNA E030024N20 gene)	1	high cell count without drug only	0.22	3.04	-1.46	0.96	inactive
Naprt (nicotinate phosphoribosyltransferase)	1	no change with or without drug	0.34	-0.17	0.56	0.97	inactive
Agr2 (anterior gradient 2)	1	no change with or without drug	0.11	-0.51	0.56	0.95	inactive

9 of these entries in another layout:
Zfp810 (zinc finger protein 810)
- combined z-score class: no change with or without drug
- viability z-score with doxorubicin: 0
- viability z-score without drug: 0.17
- z-score of drug to no-drug ratio: 0
- doxorubicin viability vs non-targeting: 0.94
- outcome: inactive

Nr2f6 (nuclear receptor subfamily 2, group F, member 6)
- combined z-score class: no change with or without drug
- viability z-score with doxorubicin: 0.67
- viability z-score without drug: 1.69
- z-score of drug to no-drug ratio: -0.34
- doxorubicin viability vs non-targeting: 1
- outcome: inactive

Slc10a6
- combined z-score class: no change with or without drug
- viability z-score with doxorubicin: 0.9
- viability z-score without drug: 0.84
- z-score of drug to no-drug ratio: 0.45
- doxorubicin viability vs non-targeting: 1.02
- outcome: inactive

Mphosph6 (M phase phosphoprotein 6)
- combined z-score class: no change with or without drug
- viability z-score with doxorubicin: 1.69
- viability z-score without drug: 0.17
- z-score of drug to no-drug ratio: 1.8
- doxorubicin viability vs non-targeting: 1.09
- outcome: inactive

Mcmdc2 (minichromosome maintenance domain containing 2)
- combined z-score class: no change with or without drug
- viability z-score with doxorubicin: 1.35
- viability z-score without drug: 1.85
- z-score of drug to no-drug ratio: 0.22
- doxorubicin viability vs non-targeting: 1.06
- outcome: inactive

SCN1A
- combined z-score class: no change with or without drug
- viability z-score with doxorubicin: -0.45
- viability z-score without drug: 0.17
- z-score of drug to no-drug ratio: -0.45
- doxorubicin viability vs non-targeting: 0.9
- outcome: inactive

Bace1 (beta-site APP cleaving enzyme 1)
- combined z-score class: no change with or without drug
- viability z-score with doxorubicin: -0.22
- viability z-score without drug: 1.18
- z-score of drug to no-drug ratio: -0.9
- doxorubicin viability vs non-targeting: 0.92
- outcome: inactive

Irf6 (interferon regulatory factor 6)
- combined z-score class: no change with or without drug
- viability z-score with doxorubicin: 0.34
- viability z-score without drug: 1.01
- z-score of drug to no-drug ratio: -0.22
- doxorubicin viability vs non-targeting: 0.97
- outcome: inactive

9530091C08Rik (RIKEN cDNA 9530091C08 gene)
- combined z-score class: no change with or without drug
- viability z-score with doxorubicin: 0
- viability z-score without drug: -1.18
- z-score of drug to no-drug ratio: 1.01
- doxorubicin viability vs non-targeting: 0.94
- outcome: inactive

Next reagents follow.
target	reagent	combined z-score class	viability z-score with doxorubicin	viability z-score without drug	z-score of drug to no-drug ratio	doxorubicin viability vs non-targeting	outcome
Rcbtb2	1	no change with or without drug	-1.12	-0.67	-0.67	0.84	inactive
Cd55 (CD55 molecule, decay accelerating factor for complement)	1	no change with or without drug	0.67	-1.18	1.8	1	inactive
Ppnr (per-pentamer repeat gene)	1	no change with or without drug	-1.8	0.67	-2.14	0.78	inactive
B3gnt7	1	no change with or without drug	1.12	1.35	0.34	1.04	inactive
Tank (TRAF family member-associated Nf-kappa B activator)	1	no change with or without drug	-0.67	-0.84	0	0.88	inactive
Kir3dl1	1	no change with or without drug	-0.67	-0.51	-0.22	0.88	inactive
Anxa1 (annexin A1)	1	no change with or without drug	-1.57	-1.52	-0.56	0.8	inactive
Tgfbrap1	1	no change with or without drug	0.22	-0.67	0.79	0.96	inactive
Uqcrb (ubiquinol-cytochrome c reductase binding protein)	1	no change with or without drug	-0.67	-0.84	0	0.88	inactive
Hoxc6 (homeobox C6)	1	no change with or without drug	0.11	-0.51	0.56	0.95	inactive
Lrrc61 (leucine rich repeat containing 61)	1	no change with or without drug	1.8	0.51	1.57	1.1	inactive
Hdac4 (histone deacetylase 4)	1	low cell count with doxorubicin only	-2.25	-1.85	-1.12	0.74	active
Ip6k1 (inositol hexaphosphate kinase 1)	1	no change with or without drug	1.01	0.34	0.9	1.03	inactive
Rasal2 (RAS protein activator like 2)	1	no change with or without drug	-0.45	-0.84	0.22	0.9	inactive
Rasal2 (RAS protein activator like 2)	2	no change with or without drug	-1.12	0.84	-1.57	0.84	inactive
Ifit1 (interferon-induced protein with tetratricopeptide repeats 1)	1	no change with or without drug	-0.79	-0.84	-0.11	0.87	inactive
Wfdc15b (WAP four-disulfide core domain 15B)	1	no change with or without drug	0	0	0.11	0.94	inactive
Polb (polymerase (DNA directed), beta)	1	no change with or without drug	0.79	0.34	0.67	1.01	inactive
Ccdc28b (coiled coil domain containing 28B)	1	no change with or without drug	-0.45	1.69	-1.35	0.9	inactive
Cd80 (CD80 antigen)	1	no change with or without drug	0.67	-0.17	0.9	1	inactive
Or1e34 (olfactory receptor family 1 subfamily E member 34)	1	no change with or without drug	0.34	1.18	-0.34	0.97	inactive
Or2ad1 (olfactory receptor family 2 subfamily AD member 1)	1	no change with or without drug	-1.12	-1.85	0.22	0.84	inactive
Jrk (JRK helix-turn-helix protein)	1	no change with or without drug	0.56	0.84	0.11	0.99	inactive
Flvcr1 (feline leukemia virus subgroup C cellular receptor 1)	1	no change with or without drug	-1.24	-1.18	-0.45	0.83	inactive
Hars1 (histidyl-tRNA synthetase 1)	1	no change with or without drug	-0.45	0.17	-0.45	0.9	inactive
Kynu (kynureninase)	1	no change with or without drug	-0.45	1.01	-1.01	0.9	inactive
Hmgcs2 (3-hydroxy-3-methylglutaryl-Coenzyme A synthase 2)	1	no change with or without drug	-0.67	-1.52	0.45	0.88	inactive
Rasgrp2 (RAS, guanyl releasing protein 2)	1	no change with or without drug	0	1.85	-1.01	0.94	inactive
D830050J10Rik (RIKEN cDNA D830050J10 gene)	1	no change with or without drug	0.34	1.52	-0.56	0.97	inactive
